In US20040014772A1, “Compositions and methods for treating glomerular disorders” (priority 2000, published 2004):
At least one compound was matched to its structure with a doubt left.

What was measured:
[1] = test system: PAN-induced nephrotic syndrome; assay: PAN-induced nephrotic syndrome: proteinuria and serum albumin; format: in vivo, rat; conditions: PAN-treated rats, daily urine protein to day 7
Description: Male Sprague-Dawley rats weighing 200-250 g were injected either saline or a single intravenous injection of PAN (Sigma, St. Louis) in a dose of 7.5 mg/100g BW (day 0) as described in Ueda et al, 19996, Kidney Intl. 49:370-373. Animals were housed in separate metabolic cages and allowed free access to rat chow (Purina). Daily urine protein excretion was determined and animals were sacrificed on day 7. Blood was obtained for the measurement of serum albumin and the evaluation of renal function as measured by blood urea nitrogen (BUN) and plasma creatinine. Cell fraction of the glomeruli was prepared for bleomycin detectable iron assay. The microsome fraction was utilized for the measurement of CYP content.
Two different general CYP inhibitors were used, cimetidine (CM) and piperonyl butoxide (PB). Cimetidine has imidazole and cyano groups that inhibit CYP by interacting with the heme moiety. […] To determine the effect of the CYP inhibitors in PAN- induced nephrotic syndrome, CM (120 mg/kg BW) was administered intraperitoneal 1 h prior to PAN injection and then twice a day. Piperonyl butoxide (PB) which yields a metabolite that binds to the heme moiety of CYP, was given intraperitoneal (400 mg/kg BW) 4h before PAN injection and then every other day.
PIP is believed to inhibit CYP2B1 by forming an inhibitory complex therewith. […]

CYP2B1 = CYP2B1 content in glomeruli (immunohistochemistry, western blot); format: in vivo, rat; conditions: PAN-treated rats, 6 hours to day 7
From the text: The microsome fraction obtained was subjected to SDS-page electrophoresis in 1 mm slab gels. The separated forms were transferred from gel to a nitrocellulose sheet using a Mini Trans-blot electroblotting unit. The primary antibodies were monoclonal anti-HO-1 (OSA-111, StressGen, Victoria, BC, Canada) and monoclonal anti-CYP2B1 (PM25, Oxford Biomedical Research, Oxford, Mich., USA). Subsequent to primary and secondary antibody (peroxidase-labeled) treatment, the blots were visualized by enhanced chemiluminescence method. Kidney cortical sections were fixed in 10% buffered formalin for 6 hours and embedded in paraffin. After deparaffinization and antigen retrieval, the sections were immunolabeled and visualized according to an avidin-biotin complex (ABC) method. The primary antibody for detection of ferritin was polyclonal anti-Ferritin (L subunit) antibody (605022; Boehringer Mannheim Corp., Indianapolis, Ind., USA).

[2] = test system: glomerular epithelial cells GEC; assay: PAN induced catalytic iron release from GEC (bleomycin detectable iron); format: cell-based, rat; conditions: PAN 1.5 mM 1 h; preincubation CM 2 mM, PB 25 μM, RN 1 mM, PIP 0.2 mM, pyruvate 10 mM
Description: Iron capable of catalyzing free radical reactions was measured by bleomycin detectable iron assay as described by Gutteridge et al, 1981, Biochem. J. 199:263-265, Gutteridge et al, 1982, Biochem. J. 206:605-609, Baliga et al, 1993, Bioche. J. 291:901-905, Baliga et al, 1996, Kidney Int. 49:362-369, Baliga et al, Kidney Int. 53:394-401, Ueda et al, 1996, Kidney Int. 49:370-373, Baliga et al, 1998, Kidney Int. 54:1562-1569.
Confluent cell monolayer was washed three times with Chelex-treated HBSS to remove as much contaminating iron as possible. The GEC monolayer was then incubated in Chelex-treated HBSS with cytotoxic dose of PAN for a period time at 37° C. before substantial cell killing and after significant iron release occurs (1.5 mM, 60 min, based on a time course study on iron release induced by PAN, data not shown). The incubation medium was then collected for the measurement of catalytic iron using bleomycin detectable iron assay as mentioned above. To determine the effect of CYP inhibitors on the iron release, GEC monolayer was preincubated with CM (2 mM), RN (1 mM, as a control of CM) for 30 min or PB (25 uM) for 60 min in Chelex-treated HBSS at 37° C. After the incubation, the medium with CYP inhibitor was discarded and then the cell monolayers were washed twice with chelex-treated HBSS prior to the incubation of PAN.

[3] = test system: glomerular epithelial cells GEC; assay: Intracellular H2O2 generation in GEC (DCF fluorescence); format: cell-based, rat; conditions: PAN 1.5 mM; CM, PIP, RN or pyruvate 10 mM
Description: The principle of this method is that the oxidation of 2′,7′-dichlorofluorescin-diacetate (DCFH-DA) in the presence of H2O2 produces the highly fluorescent compound 2′,7′-dichlorofluroescin (DCF) which can be measured by fluorometer. The intracellular generation of H2O2 in GEC was tested utilizing the microplate assay procedure described by Rosenkranz et al (J. Immunol. Methods, 1992, 156:39-45.). In brief, confluent GEC were harvested by trypsin and suspended in HBSS. After an equilibration period at 37° C. with constant shaking, they were transferred to a microplate (2×10^5-1×10^6 cells/well) and then incubated at 37° C. with equal volumes of DCFH-DA (10 μl/ml) and PAN (1.5 mM) for the planned time period. At the end of the incubation, the fluorescent intensity of the cell suspension was read using a fluorescence spectrophotometer (wavelength 485/535 nm) capable of reading microtiter plates.

ferritin = assay: Ferritin immunohistochemistry in kidney of PAN-treated rats; format: in vivo, rat
Description: (§1) Kidney cortical sections were fixed in 10% buffered formalin for 6 hours and embedded in paraffin. After deparaffinization and antigen retrieval, the sections were immunolabeled and visualized according to an avidin-biotin complex (ABC) method. The primary antibody for detection of ferritin was polyclonal anti-Ferritin (L subunit) antibody (605022; Boehringer Mannheim Corp., Indianapolis, Ind., USA).

H2O2 in the glomeruli = assay: Ultrastructural localization of H2O2 (cerium histochemistry) in rat kidney; format: in vivo; conditions: rats
Description: The principle of this method is that cerium ions combine with H2O2 generated by the cell that results in a precipitate with properties suitable for ultrastructural histochemistry. Localization of H2O2 generation was performed following the procedure of Neale et al (PNAS, USA, 1993, 90:3645-3649.). Following PAN treatment, the left kidney was perfused at 37° C. by retrograde aortic perfusion with 4 ml of each of the following solutions: a) PBS; b) 20 mmol Tris-maleate buffer (pH 7.2) containing 7% sucrose (TMS); c) TMS containing 1 mmol aminotriazole; d) TMS containing 10 mmol aminotriazole, 1 mmol cerium chloride heptahydrate and 2.56 mmol B-NADPH; and e) TMS followed by 10 mmol of 2.5% glutaraldehyde as the fixative. Pieces of the kidney were fixed further for 2 hours in glutaraldehyde and embedded in Epon. Sections from the tissue block were routinely stained with 4% aqueous uranyl acetate and alkaline lead, and examined under a Leo 906 electron microscope.

[4] = test system: glomeruli of PAN-treated rats; assay: Bleomycin detectable iron assay in glomeruli of PAN-treated rats; format: in vivo, rat; conditions: CM 120 mg/kg, PB 400 mg/kg or PIP 85 mg/kg ip, 6 hours, day 4, day 7
Description: Glomeruli were isolated by a combination of sieving and differential centrifugation as described in Ueda et al, 19996, Kidney Intl. 49:370-373, and Baliga et al, 1992, Am. J. Physiol. 263:214-221. Glomeruli isolated from two rats were pooled together (as N of 1) for the isolation of microsomes. Iron capable of catalyzing free radical reactions was measured by bleomycin detectable iron assay as described by Gutteridge et al, 1981, Biochem. J. 199:263-265, Gutteridge et al, 1982, Biochem. J. 206:605-609, Baliga et al, 1993, Bioche.

[5] = test system: glomerular epithelial cells GEC; assay: PAN induced hydroxyl radical formation in GEC (deoxyribose degradation); format: cell-based, rat; conditions: PAN 1.5 mM 1 h; preincubation CM 2 mM, PB 25 μM, RN 1 mM, PIP 0.2 mM, pyruvate 10 mM
Description: 2-deoxy-D-ribose in a final concentration of 3 mM was added to the medium just prior to the incubation. At the end of the incubation, the incubation medium was collected for the measurement of hydroxyl radical formation by deoxyribose degradation method as in Baliga et al (Kidney Intl. 1996, 50:1118-1124.).
Confluent GEC monolayer was washed twice with HBSS and then incubated with 1.5 mM PAN in HBSS for a period of time before substantial cell killing occurs (1 h) at 37° C. 2-deoxy-D-ribose in a final concentration of 3 mM was added to the medium just prior to the incubation. At the end of the incubation, the incubation medium was collected for the measurement of hydroxyl radical formation by deoxyribose degradation method described in Baliga et al, 1996, Kidney Int. 50:1118-1124. To determine the effect of CYP inhibitors on the hydroxyl radical formation, GEC monolayers were preincubated with CM, RN or PB as mentioned above.

HO-1 = HO-1 induction in GEC exposed to PAN (western blot); format: cell-based, rat; conditions: PIP 0.2 mM, CM 2 mM, pyruvate 10 mM
From the text: (§2) The microsome fraction obtained was subjected to SDS-page electrophoresis in 1 mm slab gels. The separated forms were transferred from gel to a nitrocellulose sheet using a Mini Trans-blot electroblotting unit. The primary antibodies were monoclonal anti-HO-1 (OSA-111, StressGen, Victoria, BC, Canada) and monoclonal anti-CYP2B1 (PM25, Oxford Biomedical Research, Oxford, Mich., USA). Subsequent to primary and secondary antibody (peroxidase-labeled) treatment, the blots were visualized by enhanced chemiluminescence method.

heme oxidase (HO-1) = assay: HO-1 induction in kidney of PAN-treated rats (immunohistochemistry, western blot, RT-PCR); format: in vivo, rat; conditions: RT-PCR vs GAPDH; one hour to day 4 after PAN
From the text: as §2, §1
RNA was isolated from the kidney cortex using TRIzol Reagant (Gibco, BRL, Gaithersburg, Md., USA). Revers transcription of […] of total RNA was carried out using Moloney murine leukemia virus reverse transcriptase (Gibco, BRL). The resulting first-strand cDNA preparations were used as templates for PCR. HO-1 primer described by Paschen et al (Neurosci Lett, 1994, 180:5-8.) were purchased from Gibco, BRL. The sense primer was: %′-[…]-3′, and the antisense 5′-[…]-3′. […]

| SMILES | proteinuria [1] | CYP2B1 content in the glomeruli (CYP2B1) | bleomycin detectable (catalytic) iron release from GEC [2] | intracellular H2O2 generation in GEC [3] | ferritin content in the glomeruli and the tubules (ferritin) | cerium-H2O2 reaction product in the glomerular basement membrane (H2O2 in the glomeruli; 1 hour and 6 hours after PAN injection) | foot processes (electron microscopy) (H2O2 in the glomeruli; fourth day after PAN, onset of proteinuria) | bleomycin detectable iron content in the glomeruli [4] | hydroxyl radical formation in GEC [5] | HO-1 induction in GEC (HO-1) | HO-1 mRNA expression in the kidney (heme oxidase (HO-1)) |
| --- | --- | --- | --- | --- | --- | --- | --- | --- | --- | --- | --- |
| O=C(/C=C/C=C/c1ccc2c(c1)OCO2)N1CCCCC1 [PIP, piperine] | significant protection | preserved | prevented the increase | significantly decreased | markedly reduced the up-regulation | significantly attenuated | significant preservation of the foot processes | significantly prevented this increase | significantly reduced | significantly prevented the induction | markedly reduced |
| CC(=O)C(=O)O [pyruvate] |  |  | significantly decrease | markedly reduce |  |  |  |  | significantly reduced | significantly prevented the induction |  |
| CNC(=C[N+](=O)[O-])NCCSCc1ccc(CN(C)C)o1 [RN, ranitidine] | does not exhibit protection |  | does not prevent the marked increase and not | not |  |  |  |  | does not reduce and not |  |  |
